The text below walks through data of the supplement of paper PMC12819154, “High-throughput peptide-centric local stability assay extends protein–ligand identification to membrane proteins, tissues and bacteria” (Nature Structural & Molecular Biology, 2025).

By UniProt entry, the sequences of proteins in these tests, tags left out. Where a name states a change or a piece, a line headed by the entry shows the natural chain unless it says otherwise.
UniProt Q53RE8: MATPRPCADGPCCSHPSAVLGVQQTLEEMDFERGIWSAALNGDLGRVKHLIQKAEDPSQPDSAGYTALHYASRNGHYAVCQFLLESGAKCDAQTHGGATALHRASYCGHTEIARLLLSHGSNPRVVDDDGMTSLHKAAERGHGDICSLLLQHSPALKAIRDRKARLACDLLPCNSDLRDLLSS
UniProt Q53S33: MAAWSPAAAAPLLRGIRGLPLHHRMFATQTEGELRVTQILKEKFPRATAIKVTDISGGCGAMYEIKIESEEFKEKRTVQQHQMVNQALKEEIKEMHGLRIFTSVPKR
UniProt Q5TCQ9: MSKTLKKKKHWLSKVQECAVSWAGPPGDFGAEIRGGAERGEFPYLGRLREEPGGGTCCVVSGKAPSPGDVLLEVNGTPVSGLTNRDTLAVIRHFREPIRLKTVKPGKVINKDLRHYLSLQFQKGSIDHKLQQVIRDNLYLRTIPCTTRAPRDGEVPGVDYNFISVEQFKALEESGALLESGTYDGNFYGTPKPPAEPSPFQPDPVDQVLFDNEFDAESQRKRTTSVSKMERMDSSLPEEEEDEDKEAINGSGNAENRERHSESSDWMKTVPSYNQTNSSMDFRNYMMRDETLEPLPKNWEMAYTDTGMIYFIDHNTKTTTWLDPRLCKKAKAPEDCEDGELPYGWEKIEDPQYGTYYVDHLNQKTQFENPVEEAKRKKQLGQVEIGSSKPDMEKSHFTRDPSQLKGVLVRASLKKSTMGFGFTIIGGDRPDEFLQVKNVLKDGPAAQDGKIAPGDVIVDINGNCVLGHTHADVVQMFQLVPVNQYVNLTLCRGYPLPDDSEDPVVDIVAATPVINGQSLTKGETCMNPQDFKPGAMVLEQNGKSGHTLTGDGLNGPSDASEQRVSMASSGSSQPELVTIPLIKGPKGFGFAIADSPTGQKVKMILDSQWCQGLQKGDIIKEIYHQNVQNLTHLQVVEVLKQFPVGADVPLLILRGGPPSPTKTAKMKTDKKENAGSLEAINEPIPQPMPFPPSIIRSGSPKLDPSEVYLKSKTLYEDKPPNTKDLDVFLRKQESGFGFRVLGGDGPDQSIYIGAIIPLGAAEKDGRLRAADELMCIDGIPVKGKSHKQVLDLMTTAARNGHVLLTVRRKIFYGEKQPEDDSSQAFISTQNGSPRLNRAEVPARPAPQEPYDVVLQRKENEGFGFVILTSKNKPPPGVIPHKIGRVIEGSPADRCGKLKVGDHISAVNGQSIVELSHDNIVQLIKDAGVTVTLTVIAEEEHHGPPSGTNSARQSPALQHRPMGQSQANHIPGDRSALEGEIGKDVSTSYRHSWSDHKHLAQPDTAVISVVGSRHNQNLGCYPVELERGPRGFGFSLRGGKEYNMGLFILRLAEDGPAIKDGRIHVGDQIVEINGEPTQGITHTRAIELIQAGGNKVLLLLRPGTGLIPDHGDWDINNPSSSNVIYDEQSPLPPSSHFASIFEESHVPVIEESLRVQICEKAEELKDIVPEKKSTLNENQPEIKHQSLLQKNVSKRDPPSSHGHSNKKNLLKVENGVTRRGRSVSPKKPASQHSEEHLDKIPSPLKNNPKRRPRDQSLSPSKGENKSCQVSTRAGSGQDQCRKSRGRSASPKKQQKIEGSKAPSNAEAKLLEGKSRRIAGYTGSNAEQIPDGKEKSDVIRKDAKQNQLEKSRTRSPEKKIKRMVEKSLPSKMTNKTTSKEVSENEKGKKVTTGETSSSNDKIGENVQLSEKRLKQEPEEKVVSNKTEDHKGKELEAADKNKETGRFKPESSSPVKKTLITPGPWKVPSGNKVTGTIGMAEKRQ
UniProt Q5D1E8: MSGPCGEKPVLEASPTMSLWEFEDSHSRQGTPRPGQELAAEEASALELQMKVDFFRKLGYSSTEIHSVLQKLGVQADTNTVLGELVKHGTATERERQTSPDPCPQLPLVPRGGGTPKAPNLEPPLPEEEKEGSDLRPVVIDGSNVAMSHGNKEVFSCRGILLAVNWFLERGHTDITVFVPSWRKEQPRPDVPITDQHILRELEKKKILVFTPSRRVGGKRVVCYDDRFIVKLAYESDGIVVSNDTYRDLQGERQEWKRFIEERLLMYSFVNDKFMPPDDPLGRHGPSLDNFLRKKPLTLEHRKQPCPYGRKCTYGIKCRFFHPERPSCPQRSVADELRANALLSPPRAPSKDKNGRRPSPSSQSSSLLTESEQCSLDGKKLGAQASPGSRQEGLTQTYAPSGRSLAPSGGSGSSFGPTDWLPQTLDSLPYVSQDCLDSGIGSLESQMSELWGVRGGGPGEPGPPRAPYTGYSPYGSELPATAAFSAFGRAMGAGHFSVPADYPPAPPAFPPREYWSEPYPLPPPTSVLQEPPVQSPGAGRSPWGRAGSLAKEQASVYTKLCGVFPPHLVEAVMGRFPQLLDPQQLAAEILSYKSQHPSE
UniProt Q5BKY9: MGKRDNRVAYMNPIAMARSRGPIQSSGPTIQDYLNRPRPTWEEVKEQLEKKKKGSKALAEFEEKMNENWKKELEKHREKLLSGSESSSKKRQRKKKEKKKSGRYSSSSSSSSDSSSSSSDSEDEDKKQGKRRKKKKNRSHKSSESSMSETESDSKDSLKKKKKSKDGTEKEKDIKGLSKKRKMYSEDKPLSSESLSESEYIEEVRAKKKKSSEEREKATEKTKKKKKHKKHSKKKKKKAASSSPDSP
UniProt Q4LE39: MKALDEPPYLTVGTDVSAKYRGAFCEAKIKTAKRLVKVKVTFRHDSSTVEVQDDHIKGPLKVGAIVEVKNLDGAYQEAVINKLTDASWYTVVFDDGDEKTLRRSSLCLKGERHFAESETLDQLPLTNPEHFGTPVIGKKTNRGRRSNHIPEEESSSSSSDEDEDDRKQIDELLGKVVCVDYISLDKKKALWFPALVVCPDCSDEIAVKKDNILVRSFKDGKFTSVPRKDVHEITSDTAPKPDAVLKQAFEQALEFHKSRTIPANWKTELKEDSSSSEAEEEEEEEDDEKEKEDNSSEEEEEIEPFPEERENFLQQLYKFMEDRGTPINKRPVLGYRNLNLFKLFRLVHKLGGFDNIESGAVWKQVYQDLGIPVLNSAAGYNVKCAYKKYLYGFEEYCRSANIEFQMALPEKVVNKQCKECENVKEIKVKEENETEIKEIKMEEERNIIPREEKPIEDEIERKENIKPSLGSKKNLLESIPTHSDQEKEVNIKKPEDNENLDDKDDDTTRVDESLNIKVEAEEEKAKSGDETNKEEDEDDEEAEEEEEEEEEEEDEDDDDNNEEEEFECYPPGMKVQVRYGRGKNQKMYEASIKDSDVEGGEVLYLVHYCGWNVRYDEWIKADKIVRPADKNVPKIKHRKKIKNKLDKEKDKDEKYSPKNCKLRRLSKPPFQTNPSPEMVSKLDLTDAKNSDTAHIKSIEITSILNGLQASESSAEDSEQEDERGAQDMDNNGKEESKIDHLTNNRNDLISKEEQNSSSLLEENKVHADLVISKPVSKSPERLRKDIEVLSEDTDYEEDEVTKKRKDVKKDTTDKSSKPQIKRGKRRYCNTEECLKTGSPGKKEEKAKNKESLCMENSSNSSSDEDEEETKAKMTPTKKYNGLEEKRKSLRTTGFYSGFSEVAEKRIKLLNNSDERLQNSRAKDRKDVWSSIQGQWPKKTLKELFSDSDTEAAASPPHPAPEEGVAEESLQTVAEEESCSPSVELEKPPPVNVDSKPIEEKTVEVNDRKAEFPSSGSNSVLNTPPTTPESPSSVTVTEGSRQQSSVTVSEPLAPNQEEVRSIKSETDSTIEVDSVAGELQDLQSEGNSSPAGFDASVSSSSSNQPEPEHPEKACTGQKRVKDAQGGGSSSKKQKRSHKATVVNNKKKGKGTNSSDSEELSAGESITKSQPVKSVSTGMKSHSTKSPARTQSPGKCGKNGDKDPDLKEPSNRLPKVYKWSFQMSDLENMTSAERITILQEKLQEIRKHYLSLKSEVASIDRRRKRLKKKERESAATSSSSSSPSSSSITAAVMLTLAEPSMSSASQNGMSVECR
UniProt Q5JVF3: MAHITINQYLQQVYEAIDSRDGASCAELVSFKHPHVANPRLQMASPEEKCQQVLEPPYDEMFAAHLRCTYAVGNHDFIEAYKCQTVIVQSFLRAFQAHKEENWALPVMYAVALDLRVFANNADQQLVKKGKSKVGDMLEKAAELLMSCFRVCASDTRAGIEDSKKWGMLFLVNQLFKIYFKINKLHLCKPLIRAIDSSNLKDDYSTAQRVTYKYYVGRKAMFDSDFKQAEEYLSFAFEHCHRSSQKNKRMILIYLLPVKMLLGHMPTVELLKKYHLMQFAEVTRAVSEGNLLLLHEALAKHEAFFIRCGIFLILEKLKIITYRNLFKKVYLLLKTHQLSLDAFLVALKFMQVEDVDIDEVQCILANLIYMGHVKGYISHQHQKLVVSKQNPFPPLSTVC
UniProt Q58FG1, whole entry: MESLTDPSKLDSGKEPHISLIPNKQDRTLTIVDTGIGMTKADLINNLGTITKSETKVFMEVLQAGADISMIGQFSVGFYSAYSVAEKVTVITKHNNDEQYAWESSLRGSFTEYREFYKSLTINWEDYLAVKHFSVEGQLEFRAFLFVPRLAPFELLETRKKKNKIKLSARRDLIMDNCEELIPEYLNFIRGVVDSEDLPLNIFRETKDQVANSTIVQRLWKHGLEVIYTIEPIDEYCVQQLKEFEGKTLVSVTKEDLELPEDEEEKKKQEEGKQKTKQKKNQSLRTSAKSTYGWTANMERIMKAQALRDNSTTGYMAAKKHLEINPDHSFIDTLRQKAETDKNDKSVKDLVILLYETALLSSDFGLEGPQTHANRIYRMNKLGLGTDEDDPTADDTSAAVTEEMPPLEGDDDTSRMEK
UniProt Q5JUR7: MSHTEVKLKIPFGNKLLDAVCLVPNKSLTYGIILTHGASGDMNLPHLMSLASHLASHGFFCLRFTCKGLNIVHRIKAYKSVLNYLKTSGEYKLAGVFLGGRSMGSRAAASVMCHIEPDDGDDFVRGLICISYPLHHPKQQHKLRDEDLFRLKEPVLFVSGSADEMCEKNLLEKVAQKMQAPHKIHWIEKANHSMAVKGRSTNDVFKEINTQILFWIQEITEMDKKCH

Some of the results follow. Most entries show no effect beyond the scatter of the controls.

Compound in the experiment: CN[C@@H]1C[C@H]2O[C@@](C)([C@@H]1OC)n1c3ccccc3c3c4c(c5c6ccccc6n2c5c31)C(=O)NC4 [staurosporine]
As to the kind of experiment: log2 fold change of tryptic peptide abundance, ligand vs vehicle (limited proteolysis) (log2 ratio); higher = more trypsin-susceptible (destabilized). The settings on record: ligand concentration: 20 uM; sample: K562 cleared lysate; digestion: 4 min, 22 C (HT-PELSA RT4min, Orbitrap Astral).
On to “ANKRD39 (peptide sequence: CDAQTHGGATALHR, peptide start residue: 90) (UniProt Q53RE8)”, for which the log2 fold change was found to be 0.393.

For “UniProt Q5T4T6 (peptide sequence: FLVDGLKEDEPLLIR, peptide start residue: 92)”, the log2 fold change is -0.196.

With “BOLA3 (peptide sequence: IESEEFKEKR, peptide start residue: 67) (UniProt Q53S33)”, the log2 fold change is 0.467.

Consider “MAGI3 (peptide sequence: STLNENQPEIK, peptide start residue: 1172) (UniProt Q5TCQ9)”, for which the log2 fold change is -0.458.

On to “ZC3H12A (peptide sequence: EQPRPDVPITDQHILR, peptide start residue: 185) (UniProt Q5D1E8)”, for which the log2 fold change is -0.758.

“FAM133B (peptide sequence: EKLLSGSESSSK, peptide start residue: 78) (UniProt Q5BKY9)”: the log2 fold change was 0.233.

As to “ARID4B (peptide sequence: KNLLESIPTHSDQEK, peptide start residue: 473) (UniProt Q4LE39)”, the log2 fold change was found to be 0.267.

As for “PCID2 (peptide sequence: HPHVANPR, peptide start residue: 33) (UniProt Q5JVF3)”, the log2 fold change is 0.299.

Consider “HSP90AA4P (peptide sequence: HFSVEGQLEFR, peptide start residue: 320) (UniProt Q58FG1)”, for which the log2 fold change is -0.0956.

For “UniProt Q5JUR7 (peptide sequence: LRDEDLFR, peptide start residue: 143)”, the log2 fold change amounted to 0.403.
